Assay [1] concerns the target VvSLY1a (Vitis vinifera SLEEPY1 a) (Vitis vinifera). Kind of assay: two-hybrid; VvSLY1 as Gal4 DNA-BD bait (pGBKT7), VvDELLA as Gal4 AD prey (pGADT7); SC-Leu/Trp/His with 5 mM 3-AT; β-galactosidase liquid assay.
Assay [2] has as its target VvSLY1b (Vitis vinifera SLEEPY1 b) (Vitis vinifera) (UniProt F6GZW7). Described as above.

These are yes or no findings as the source states them, for the method shown. Binding calls can cover weak binding; strength is not graded here.

For “VvDELLA2 allele of cv. Black finger (from UniProt A0A1X9T4C6)”, the binding entry in assay [1] and in assay [2] was “binds” throughout.
Turning to “VvDELLA3 of cv. Black finger (from UniProt A0A1X9T4H2)”, the binding entry in assay [1] and in assay [2] was “binds” in each case.

The values above are taken from publication PMC5442209.
